Experimental data as given in publication PMC7366909.
These are yes or no findings as the source states them, for the method shown. In cells and extracts the contact can be indirect. These calls come from enrichment with a bait or labelling near it, and not all partners need be listed.

Sequences of proteins named here, by UniProt entry; tags and fusion partners are left off. A change or cut given only in a name is not applied to a line headed by its entry. A line that says so, or that is headed by a name, gives the form on record, which may keep a tag or linker.
CD44 (erythroid isoform CD44H) (human (endogenous in red cells)) (P16070, form named): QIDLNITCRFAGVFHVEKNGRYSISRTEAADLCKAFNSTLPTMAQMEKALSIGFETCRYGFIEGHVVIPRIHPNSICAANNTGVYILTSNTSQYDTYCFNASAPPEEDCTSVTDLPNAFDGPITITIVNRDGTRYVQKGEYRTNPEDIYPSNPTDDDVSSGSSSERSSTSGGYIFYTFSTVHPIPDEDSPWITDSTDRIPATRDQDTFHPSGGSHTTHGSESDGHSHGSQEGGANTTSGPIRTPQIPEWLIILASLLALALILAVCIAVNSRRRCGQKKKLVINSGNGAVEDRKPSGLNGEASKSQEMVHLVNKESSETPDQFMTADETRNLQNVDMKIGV

Biological target: CD44 (erythroid isoform CD44H) (human (endogenous in red cells)) (UniProt P16070)
Test: affinity purification with mass spectrometry; immune precipitates prepared from normal red cells with anti-CD44 (BRIC222) and an IgG1 isotype control; proteomic analysis

binding: binds
B1: epithelial membrane protein 3 (EMP3) (protein, UniProt P54852 1-163)
chain: MSLLLLVVSALHILILILLFVATLDKSWWTLPGKESLNLWYDCTWNNDTKTWACSNVSENGWLKAVQVLMVLSLILCCLSFILFMFQLYTMRRGGLFYATGLCQLCTSVAVFTGALIYAIHAEEILEKHPRGGSFGYCFALAWVAFPLALVSGIIYIHLRKRE
